From patent EP2123668A1, “Immunogenic polypeptides that mimic the surface polysaccharide O-antigen from serotype 2A shigella flexneri, method for obtaining the same, and their use in vaccine and diagnostic compositions” (INSTITUT PASTEUR, priority 2008, dated 2009)
For at least one compound, name, drawing or mass did not settle the structure.

tested on: mAb F22-4; assay: Biacore antibody-ligand binding (equilibrium and kinetic analysis); parameters: species or system murine; details: kinetic analysis

Structure (SMILES)	Biacore Cin kon(M-1.s-1)
CC(=O)N[C@@H]1[C@@H](O[C@@H]2O[C@@H](C)[C@H](O[C@H]3O[C@H](CO)[C@@H](O)[C@H](O)[C@H]3O)[C@@H](O[C@@H]3O[C@@H](C)[C@H](O)[C@@H](O)[C@H]3O[C@@H]3O[C@@H](C)[C@H](O)[C@@H](O)[C@H]3O[C@@H]3O[C@H](CO)[C@@H](O)[C@H](O[C@@H]4O[C@@H](C)[C@H](O[C@H]5O[C@H](CO)[C@@H](O)[C@H](O)[C@H]5O)[C@@H](O[C@@H]5O[C@@H](C)[C@H](O)[C@@H](O)[C@H]5O[C@@H]5O[C@@H](C)[C@H](O)[C@@H](O)[C@H]5O)[C@H]4O)[C@H]3NC(C)=O)[C@H]2O)[C@H](O)[C@@H](CO)O[C@H]1O [[AB(E)CD]2]	6,80±0,50^E4 M-1.s-1
COC1OC(C)C(OC2OC(CO)C(O)C(O)C2O)C(OC2OC(C)C(O)C(O)C2OC2OC(C)C(O)C(O)C2OC2OC(CO)C(O)C(OC3OC(C)C(OC4OC(CO)C(O)C(O)C4O)C(OC4OC(C)C(O)C(O)C4O)C3O)C2NC(C)=O)C1O (stereo not shown) [B(E)CDAB(E)C]	8,87±0,22^E4 M-1.s-1
COC1OC(C)C(OC2OC(CO)C(O)C(O)C2O)C(OC2OC(C)C(O)C(O)C2OC2OC(C)C(O)C(O)C2OC2OC(CO)C(O)C(OC3OC(C)C(OC4OC(CO)C(O)C(O)C4O)C(OC4OC(C)C(O)C(O)C4OC4OC(C)C(O)C(O)C4OC4OC(CO)C(O)C(O)C4NC(C)=O)C3O)C2NC(C)=O)C1O (stereo not shown) [DAB(E)CDAB(E)C]	2,84±0,52^E4 M-1.s-1
CC(=O)N[C@@H]1[C@@H](O[C@@H]2O[C@@H](C)[C@H](O[C@H]3O[C@H](CO)[C@@H](O)[C@H](O)[C@H]3O)[C@@H](O[C@@H]3O[C@@H](C)[C@H](O)[C@@H](O)[C@H]3O[C@@H]3O[C@@H](C)[C@H](O)[C@@H](O)[C@H]3O[C@@H]3O[C@H](CO)[C@@H](O)[C@H](O[C@@H]4O[C@@H](C)[C@H](O[C@H]5O[C@H](CO)[C@@H](O)[C@H](O)[C@H]5O)[C@@H](O[C@@H]5O[C@@H](C)[C@H](O)[C@@H](O)[C@H]5O[C@@H]5O[C@@H](C)[C@H](O)[C@@H](O)[C@H]5O[C@@H]5O[C@H](CO)[C@@H](O)[C@H](O[C@@H]6O[C@@H](C)[C@H](O[C@H]7O[C@H](CO)[C@@H](O)[C@H](O)[C@H]7O)[C@@H](O[C@@H]7O[C@@H](C)[C@H](O)[C@@H](O)[C@H]7O[C@@H]7O[C@@H](C)[C@H](O)[C@@H](O)[C@H]7O)[C@H]6O)[C@H]5NC(C)=O)[C@H]4O)[C@H]3NC(C)=O)[C@H]2O)[C@H](O)[C@@H](CO)O[C@H]1O [[AB(E)CD]3]	4,92±0,57^E4^(H) M-1.s-1
